Binding data for one molecule are collected here from article PMC4366279 (PLoS ONE, 2015).

Numbering of substitutions follows the chain as printed. These are yes or no findings as the source states them, for the method shown. In cells and extracts the contact can be indirect. Some entries that bind do so weakly or less than the wild type.

Experiment [1] addresses T1, TbREL1 E119A (Trypanosoma brucei) (UniProt P86926).
T1 sequence (chain, [35S]-methionine labelled): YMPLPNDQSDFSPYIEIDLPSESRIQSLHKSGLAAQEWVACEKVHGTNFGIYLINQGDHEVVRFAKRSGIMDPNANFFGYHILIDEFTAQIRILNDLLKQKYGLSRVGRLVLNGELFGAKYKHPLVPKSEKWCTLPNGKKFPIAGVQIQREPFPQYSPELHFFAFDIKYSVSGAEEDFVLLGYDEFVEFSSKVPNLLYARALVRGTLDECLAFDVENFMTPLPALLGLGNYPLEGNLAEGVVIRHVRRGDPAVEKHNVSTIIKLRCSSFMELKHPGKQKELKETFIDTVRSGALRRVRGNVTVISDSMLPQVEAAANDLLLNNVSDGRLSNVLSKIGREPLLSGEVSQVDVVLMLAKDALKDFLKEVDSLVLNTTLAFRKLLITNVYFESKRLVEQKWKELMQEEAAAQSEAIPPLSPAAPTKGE
Briefly: pull-down; His6-TbREL1 TNT mixture mixed with an equal volume of untagged KREPA2 TNT mixture, captured on magnetic His-tag isolation beads (Dynabeads); binding buffer 50 mM NaPO4 pH 8.0, 300 mM NaCl, 0.01% Tween 20; 20-30 min at 4°C; three washes; [35S]-methionine-labelled proteins on 10% SDS-PAGE, PhosphorImager; KREPA2-only control for background.

The target in experiment [2] is T2, TbREL1 H205A (Trypanosoma brucei) (UniProt P86926).
T2 sequence (chain, [35S]-methionine labelled): T1 sequence (chain, [35S]-methionine labelled) with A75E, H161A
Described as above.

B1: KREPA2 (natural protein)
chain: MYRRFFRSAAVKHLGTTSAQCLMRATKYPCGAMCRNASSCHPQTLGYQQRFQSTTDKKFHCSVCKKPFRLEMAAKLHLQQAHGGDGSVEAGPGPGVEASSVNVVSTPVPSPISPVERTFVDEEERRPRRMRPTPKPLHQPDRDIPAAAMEEMLGVWDKIGLNRLEGNFVHSTMVMKVFAAPPDVSEIPLYEHVAPEGENPFDSLDHMTTGTVDATYVGHDAFAEVDLVDPFVAAPDQTLNPFRAGKVRNPFTRISPTQREVVKPLQPPQPKEEPLKAPVTPFGQLPMFGQTREPSASFAAAAVSVQAAANPNEVSSPFAAAVSSSPFVGQVASPFAPAQDVAGSPFEASPCAASSPFVTAGGQETSPFAAPSTPASFGQGSLFPPMGTGAPGFTAITETEQRQQELEHGCPTCGKKFSTFEGAAMHSKSKHGIVLESKKVKDRLNRKGVPDLPAYVPSPVDLSSTSPFGTRSAIGASWAETELIPHAQCVSNITIVGRVLDVSQASENVSHVTVFVEGERSGEEETLTLCCFGEVSQKIRGTLKRNATIFASGTLRLHPVYEASNNKYYVSPVVHVSMPTGTLAVIT
modifications: [35S]-methionine labelled
notes: KREPA2 of T. brucei, the KREPA2 open reading frame, expressed untagged (63 kDa); source: in vitro translated (TNT reticulocyte lysate coupled transcription and translation system, Promega)
B1: the binding entry in experiment [1] and in experiment [2] was “binds” each time.
